In article PMC5052650:
For some of these results: The comparison behind a weaker result is the experiment's own reference, which may not be listed here. For at least one entry, the source does not settle the construct or the ends of the probe. For some of these results: A negative result means that nothing was seen under these conditions. For some of these results: At least one verdict rests on a figure or table, not on a statement of the authors.

Chains of the proteins cited; added tags and fusions are not shown. Residues count along the entry.
UniProt Q9UGN5, 71-583: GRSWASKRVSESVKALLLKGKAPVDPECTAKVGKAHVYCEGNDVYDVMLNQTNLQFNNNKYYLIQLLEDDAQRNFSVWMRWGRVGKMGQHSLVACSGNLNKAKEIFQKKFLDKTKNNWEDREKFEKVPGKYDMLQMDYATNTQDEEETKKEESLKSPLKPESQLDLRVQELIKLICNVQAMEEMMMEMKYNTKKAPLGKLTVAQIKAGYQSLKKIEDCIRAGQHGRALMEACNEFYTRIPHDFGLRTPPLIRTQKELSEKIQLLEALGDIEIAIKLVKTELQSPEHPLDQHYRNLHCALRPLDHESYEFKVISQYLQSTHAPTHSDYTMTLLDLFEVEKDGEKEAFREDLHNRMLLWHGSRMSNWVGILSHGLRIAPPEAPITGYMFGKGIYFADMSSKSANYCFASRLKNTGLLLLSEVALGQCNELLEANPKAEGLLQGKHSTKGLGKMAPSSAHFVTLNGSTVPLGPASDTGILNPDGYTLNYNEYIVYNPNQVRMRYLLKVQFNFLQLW
UniProt Q9UGN5, 1-70: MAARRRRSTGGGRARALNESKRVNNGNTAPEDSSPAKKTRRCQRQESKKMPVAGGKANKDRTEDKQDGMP
UniProt Q9UGN5, 1-218: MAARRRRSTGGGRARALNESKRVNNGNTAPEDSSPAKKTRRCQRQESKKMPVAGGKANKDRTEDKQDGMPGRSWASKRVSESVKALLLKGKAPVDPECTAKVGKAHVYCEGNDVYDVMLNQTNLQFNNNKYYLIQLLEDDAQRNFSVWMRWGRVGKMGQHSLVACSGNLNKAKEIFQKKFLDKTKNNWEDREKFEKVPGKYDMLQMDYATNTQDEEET
UniProt Q9UGN5, 71-218: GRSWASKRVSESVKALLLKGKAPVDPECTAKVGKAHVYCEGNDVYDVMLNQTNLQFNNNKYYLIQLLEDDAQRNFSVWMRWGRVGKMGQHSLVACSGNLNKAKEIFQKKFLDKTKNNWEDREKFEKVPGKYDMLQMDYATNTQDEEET

Assays:
[1] = biological target: ARTD2WGR+CAT (Homo sapiens) (UniProt Q9UGN5); test: size-exclusion HPLC; settings: 5'-phosphate; SEC-SAXS: 20 mM Hepes pH 7.5, 300 mM NaCl, 5% glycerol; recombinant protein; protein details: His6-ZB removed by TEV (QS left); folded or branched DNA
ARTD2N (Homo sapiens) [2] = biological target: ARTD2N (Homo sapiens) (UniProt Q9UGN5); test: EMSA; settings: no shift, binds in FP (fast off rate suggested); 5'-phosphate; EMSA: 50 mM Hepes, 300 mM NaCl, 0.1 mM EDTA, 10% glycerol, 0.1 mM TCEP, on ice, 1 uM DNA; recombinant protein; protein details: His6-thioredoxin removed by TEV (QS left); folded or branched DNA
[3] = biological target: ARTD2N+WGR (Homo sapiens) (UniProt Q9UGN5); test: EMSA; settings: slight delay; 5'-phosphate; EMSA: 50 mM Hepes, 300 mM NaCl, 0.1 mM EDTA, 10% glycerol, 0.1 mM TCEP, on ice, 1 uM DNA; recombinant protein; protein details: His6-thioredoxin removed by TEV (QS left); folded or branched DNA
ARTD2FL (Homo sapiens) = ARTD2FL (Homo sapiens) (UniProt Q9UGN5); test: EMSA; settings: did not bind efficiently, EMSA: 50 mM Hepes, 300 mM NaCl, 0.1 mM EDTA, 10% glycerol, 0.1 mM TCEP, on ice, 1 uM DNA, recombinant protein, residues 1-583, protein details: His6-thioredoxin removed by TEV (QS left)
ARTD2N (Homo sapiens) [4] = biological target: ARTD2N (Homo sapiens) (UniProt Q9UGN5); test: fluorescence polarization; settings: same range as FL, FP: 10 mM Hepes pH 8.0, 150 mM NaCl, 0.1 mM TCEP, 0.1 mM EDTA, 10% glycerol, 25 C, 5 nM DNA (250 nM for stoichiometry), recombinant protein, protein details: His6-thioredoxin removed by TEV (QS left), label: fluorescein
[5] = biological target: ARTD2N+WGR (Homo sapiens) (UniProt Q9UGN5); test: fluorescence polarization; settings: same range as FL, FP: 10 mM Hepes pH 8.0, 150 mM NaCl, 0.1 mM TCEP, 0.1 mM EDTA, 10% glycerol, 25 C, 5 nM DNA (250 nM for stoichiometry), recombinant protein, protein details: His6-thioredoxin removed by TEV (QS left), label: fluorescein
[6] = biological target: ARTD2WGR+CAT (Homo sapiens) (UniProt Q9UGN5); test: fluorescence polarization; settings: Kd between 170 nM and 4 uM, FP: 10 mM Hepes pH 8.0, 150 mM NaCl, 0.1 mM TCEP, 0.1 mM EDTA, 10% glycerol, 25 C, 5 nM DNA (250 nM for stoichiometry), recombinant protein, protein details: His6-ZB removed by TEV (QS left), label: fluorescein
ARTD2WGR (Homo sapiens) = ARTD2WGR (Homo sapiens) (UniProt Q9UGN5); test: fluorescence polarization; settings: Kd micromolar; 5'-phosphate; FP: 10 mM Hepes pH 8.0, 150 mM NaCl, 0.1 mM TCEP, 0.1 mM EDTA, 10% glycerol, 25 C, 5 nM DNA (250 nM for stoichiometry); recombinant protein; protein details: His6-ZB removed by TEV (QS left); label: fluorescein
[7] = 5'-phosphate, folded or branched DNA

Q: Does “GGAAGTTCTTTTGAACTTCCTCGAAGCTTTTGCTTCGA [oligonucleotide 2]” bind [1]?
A: Result: binds

Q: Does “GGAAGTTCTTTTGAACTTCC [oligonucleotide 6]” bind (ARTD2N (Homo sapiens) [2])?
A: Result: no binding

Q: Does “GGAAGTTCTTTTGAACTTCC [oligonucleotide 6]” bind [3]?
A: Result: binds

Q: Does “GGAAGTTCTTTTGAACTTCC [oligonucleotide 6]” bind [1]?
A: Result: binds

Q: Does “GGAAGTTCTTTTGAACTTCCTCGAAGCTTTTGCTTCGA [oligonucleotide 1]” bind (ARTD2FL (Homo sapiens); folded or branched DNA)?
A: Result: binds more weakly

Q: Does “CCAGGACCAGGGCGCAGATCACCTTGTTCTCCA (double strand) [oligonucleotide 39 (labelled 19)]” bind (ARTD2N (Homo sapiens) [4])?
A: Result: binds

Q: Does “CCAGGACCAGGGCGCAGATCACCTTGTTCTCCA (double strand) [oligonucleotide 39 (labelled 19)]” bind [5]?
A: Result: binds

Q: Does “CCAGGACCAGGGCGCAGATCACCTTGTTCTCCA (double strand) [oligonucleotide 39 (labelled 19)]” bind [6]?
A: Result: binds more weakly

Q: Does “CCAGGACCAGGGCGCAGATCACCTTGTTCTCCA (double strand) [oligonucleotide 40 (labelled 20)]” bind (ARTD2N (Homo sapiens) [4]; 5'-phosphate)?
A: Result: binds

Q: Does “CCAGGACCAGGGCGCAGATCACCTTGTTCTCCA (double strand) [oligonucleotide 40 (labelled 20)]” bind ([5]; 5'-phosphate)?
A: Result: binds

Q: Does “CCAGGACCAGGGCGCAGATCACCTTGTTCTCCA (double strand) [oligonucleotide 40 (labelled 20)]” bind (ARTD2WGR (Homo sapiens))?
A: Result: binds more weakly

Q: Does “CCAGGACCAGGGCGCAGATCACCTTGTTCTCCA (double strand) [oligonucleotide 40 (labelled 20)]” bind ([6]; 5'-phosphate)?
A: Result: binds more weakly

Q: Does “GGAAGTTCTTTTGAACTTCC [oligonucleotide 5]” bind (ARTD2FL (Homo sapiens); folded or branched DNA)?
A: Result: binds more weakly

Q: Does “GCCTTAGCGCGTATACGCGCTAAGGC (double strand) [oligonucleotide 38 (labelled 18)]” bind (ARTD2N (Homo sapiens) [4]; 5'-phosphate)?
A: Result: binds

Q: Does “GCCTTAGCGCGTATACGCGCTAAGGC (double strand) [oligonucleotide 38 (labelled 18)]” bind ([5]; 5'-phosphate)?
A: Result: binds

Q: Does “GCCTTAGCGCGTATACGCGCTAAGGC (double strand) [oligonucleotide 38 (labelled 18)]” bind (ARTD2WGR (Homo sapiens))?
A: Result: binds more weakly

Q: Does “GCCTTAGCGCGTATACGCGCTAAGGC (double strand) [oligonucleotide 38 (labelled 18)]” bind ([6]; 5'-phosphate)?
A: Result: binds more weakly

Q: Does “GGAAGTTCTTTTGAACTTCCTCGAAGCTTTTGCTTCGA [oligonucleotide 41 (labelled 2)]” bind (ARTD2N (Homo sapiens) [4]; [7])?
A: Result: binds

Q: Does “GGAAGTTCTTTTGAACTTCCTCGAAGCTTTTGCTTCGA [oligonucleotide 41 (labelled 2)]” bind [5, 7]?
A: Result: binds

Q: Does “GGAAGTTCTTTTGAACTTCCTCGAAGCTTTTGCTTCGA [oligonucleotide 41 (labelled 2)]” bind [6, 7]?
A: Result: binds more weakly

Q: Does “GGAAGTTCTTTTGAACTTCC [oligonucleotide 42 (labelled 6)]” bind (ARTD2N (Homo sapiens) [4]; [7])?
A: Result: binds

Q: Does “GGAAGTTCTTTTGAACTTCC [oligonucleotide 42 (labelled 6)]” bind [5, 7]?
A: Result: binds

Q: Does “GGAAGTTCTTTTGAACTTCC [oligonucleotide 42 (labelled 6)]” bind [6, 7]?
A: Result: binds more weakly

Q: Does “CCAGGACCAGGGCGCAGATCACCTTGTTCTCCA (double strand) [oligonucleotide 19]” bind (ARTD2FL (Homo sapiens))?
A: Result: binds more weakly

Q: Does “GCCTTAGCGCGTATACGCGCTAAGGC (double strand) [oligonucleotide 17]” bind (ARTD2FL (Homo sapiens))?
A: Result: binds more weakly
